No constants are given. Whether binding was seen depends on the method and setting. Binding calls can cover weak binding; strength is not graded here.
Molecular target: Tf1 integrase (IN) of the LTR-retrotransposon Tf1 of Schizosaccharomyces pombe (S. pombe (retrotransposon Tf1))
Test: two-hybrid; LexA-IN as bait, Gal4 activation domain fusions (pACT) as prey in S. cerevisiae CTY10-5d; lacZ detected with X-gal on colonies lifted to nitrocellulose filters, at room temperature

binding | Binder
binds | Rhp18 (amino acids 16-308), Rad18 homolog ubiquitin protein ligase E3 (domain or fragment, UniProt O74747 16-308) KIPSLKGLDSSLRCLICHEYFRAPLITSCSHTFCSFCIRDYLREHPMCPACRAPEQESRLRKNTILEEILESFKVIRPTLFEFLKVENVPKPVLQAPETVIAQDSASGDEEWEDDLASNSSPASIAKKTSRDSKKRKREDLVHCPACSNLVPHNQINQHLDSCLNSPSSPSSSSSPYKNKDNSKSNSLLSFKTDDDSITKRRLRSFNSADELPLKDRVRLPKLTYALLSESKIRSKLSEMGLPTDGHKQLLQRRHAKWVTLYNSNLDQKQPVSKRNLIRQLIDWERVQSKSIG
binds | Cwf3 (amino acids 3-284), component of the NineTeen splicing complex (domain or fragment, UniProt Q9P7R9 3-284) DVIPLKVNFDLINVDDEPFELELLRDPYSLKSWLRYIKTHEGSTLEKRVLLFERACSELPGSYKIWKSYLELRVAHVEHLNPYFHAEAFASVNDCFERSLILLHKMPVIWKLYLQFLMKQPNVTKIRCTFNSALRALPVTQHDDIWDMFTKYAEDIGGLFCIHVYRRYIQVEPRAIENYIEILCKLGLWNEAARQYEDILNRPVFLSAKRKSNYQIWLEFSELVVQHPDHTQNIDVEKVFRAGIKRFSDQAGKLWTYLAQYYIRIGDYEKARSTFYEGMNNI
